Measured values reported in paper PMC7819943, “Rice protein-binding microarrays: a tool to detect cis-acting elements near promoter regions in rice”.
The list shows a part of the results.

The sequences below were run against T1, OsSMF1 (Oryza sativa, UniProt Q6ZLB0 1-436) (assay: protein-binding microarray (RPBM); PBS, 2% BSA, 51.3 ng/ul salmon testes DNA, 50 uM zinc acetate, 200 nM TF, 25 C, 1 h; high values mean tight binding). Settings: protein: recombinant; tags: N-terminal polyhistidine and DsRed monomer fusion (pET32a); chain copies: 2; label: CyDye5-dUTP incorporated in the synthesized complementary strand; 3' TTTTT single-stranded linker to array surface; dsDNA, one strand shown.
T1 sequence: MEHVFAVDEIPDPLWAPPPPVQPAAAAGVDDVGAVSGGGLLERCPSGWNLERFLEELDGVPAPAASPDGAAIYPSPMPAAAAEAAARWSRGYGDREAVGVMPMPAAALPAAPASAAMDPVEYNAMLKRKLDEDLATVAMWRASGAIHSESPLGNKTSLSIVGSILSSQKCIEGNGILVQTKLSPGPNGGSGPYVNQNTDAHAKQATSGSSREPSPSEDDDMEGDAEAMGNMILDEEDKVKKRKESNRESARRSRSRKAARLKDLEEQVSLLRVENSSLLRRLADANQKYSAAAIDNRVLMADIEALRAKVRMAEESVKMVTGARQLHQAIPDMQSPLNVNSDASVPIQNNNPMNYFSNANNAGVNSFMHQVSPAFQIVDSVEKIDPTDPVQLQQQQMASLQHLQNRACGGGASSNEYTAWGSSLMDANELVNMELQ
In short: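 Using Ni–NTA, transcription factors fused N-terminally to polyhistidine and DsRed were purified after expression in E. coli BL21-CodonPlus. These were incubated at 200 nM with a blocked, double-stranded custom Agilent array for 1 h at 25 °C in a buffer containing 50 µM zinc acetate, and the array was washed. The binding signal is per-feature fluorescence intensity (arbitrary units) on an Axon 4000B scanner.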
For “GCTGGCTGCAAGACGACGACGGATGATGCGACGGCGCGGCCGGAGTCACCTAGTGCAG”, the binding signal was 3220 fluorescence intensity (a.u.).
In the case of “GTGGCCCACCTGCAGCGTCACGCATCCTCGGAGGAGCAGGCGGAGTCACCTAGTGCAG”, the binding signal is reported as 4960 fluorescence intensity (a.u.).
In the case of “CGCCGCACGATCAAACTGCCGGTGTGGCAGTAGCAGCAGCCGGAGTCACCTAGTGCAG”, the binding signal is reported as 3580 fluorescence intensity (a.u.).
“TGACTTCGAACGCATTTGTCACCGCGACGTGCCAGCCAAACGGAGTCACCTAGTGCAG” was tested, and the binding signal was 4170 fluorescence intensity (a.u.).
For “ACGGGGCAGAATCACCGATTTGCCGTCACGTCCACACTCCCGGAGTCACCTAGTGCAG”, the binding signal was 3650 fluorescence intensity (a.u.).
For “CATAGAATGTGTATCGGTTAGTCGTGAGGCAACTCATGCACGGAGTCACCTAGTGCAG”, the binding signal was 34600 fluorescence intensity (a.u.).
For “CGCTGGACGCCGCCAGATCTGCTGCTCGTCGCCGCGTGGGCGGAGTCACCTAGTGCAG”, the binding signal was 3480 fluorescence intensity (a.u.).
For “CAGTGCTCCCTGCTGTCCACGCCGGCGCCGCGCCTCCCCACGGAGTCACCTAGTGCAG”, the binding signal was 3330 fluorescence intensity (a.u.).
“TCGCCGCCGGAAAGGGGATATGAGGTGGCGGAGATTCTTGCGGAGTCACCTAGTGCAG” was tested, and the binding signal was 5660 fluorescence intensity (a.u.).
With “CCATTGTCCCCGCCGTCCCCGCCGTCCACGCCGGCGCCGCCGGAGTCACCTAGTGCAG” the binding signal was 3690 fluorescence intensity (a.u.).
With “GATTTGCAGGCGCGCATTGATGAGAACGGTGACGGGGCAGCGGAGTCACCTAGTGCAG” the binding signal was 6160 fluorescence intensity (a.u.).
With “TCGGCCCAATTACCCCATTCCGTCCAACTCCAACTCATCCCGGAGTCACCTAGTGCAG” the binding signal was 3880 fluorescence intensity (a.u.).
For “GAGACTTCTTAGTCTACACACATCATCACTATCAACTACTCGGAGTCACCTAGTGCAG”, the binding signal was 4070 fluorescence intensity (a.u.).
In the case of “TACAAAACAAATATTGTATTAAAATATAGTCAACGTTAAACGGAGTCACCTAGTGCAG”, the binding signal is reported as 8390 fluorescence intensity (a.u.).
For “GATCCCGGGCCCGGCCCACTGGCCCAGTCAACTAATCCTCCGGAGTCACCTAGTGCAG”, the binding signal was 53100 fluorescence intensity (a.u.).
With “ACCATATGACCGAGTATTAGTTATTCATCCCTCTCATAATCGGAGTCACCTAGTGCAG” the binding signal was 3440 fluorescence intensity (a.u.).
“CCTCTACATTGGCAGTCCACGTCGGTGAGTGGATCGGGTCCGGAGTCACCTAGTGCAG” was tested, and the binding signal was 5560 fluorescence intensity (a.u.).
In the case of “GGGTGTTCGGTAGTCAAGATGTCGTGGCACAGGTCACACCCGGAGTCACCTAGTGCAG”, the binding signal is reported as 9520 fluorescence intensity (a.u.).
For “TCGTCATATCAGGAGCTGCATGCAATGTCGATTTGTTTCCCGGAGTCACCTAGTGCAG”, the binding signal was 3210 fluorescence intensity (a.u.).
For “ATGTCCATCATTCCCATATGGAGCTGCTCTAGGTTGGTGACGGAGTCACCTAGTGCAG”, the binding signal was 3540 fluorescence intensity (a.u.).
“ACGGCCACCCCGAAAACACGCCACGCGAAACGACGAGCGCCGGAGTCACCTAGTGCAG” was tested, and the binding signal was 3310 fluorescence intensity (a.u.).
“GACGATCAAGATCGACACGACCAACGTGGCATGTTGCGTACGGAGTCACCTAGTGCAG” was tested, and the binding signal was 9470 fluorescence intensity (a.u.).
With “CTGCATGCTGGCGCAAGCGTCACGGGTCTACCTTGAAAGTCGGAGTCACCTAGTGCAG” the binding signal was 3320 fluorescence intensity (a.u.).
In the case of “CTGGCTGCAACGGACGAAGACTTTGGTGAATGAGGCTTGACGGAGTCACCTAGTGCAG”, the binding signal is reported as 17200 fluorescence intensity (a.u.).
With “GGACTTCCATTGTCGAGGAAATTACCACGTAAATTTGTTCCGGAGTCACCTAGTGCAG” the binding signal was 3490 fluorescence intensity (a.u.).
With “CCTAATTATCTCTCTCTCCCTACCACGTCGTCTTCTCTTCCGGAGTCACCTAGTGCAG” the binding signal was 5770 fluorescence intensity (a.u.).
For “GACATGTAGGACCCACGTGAGTCAATGACACGTGGGTCAGCGGAGTCACCTAGTGCAG”, the binding signal was 23800 fluorescence intensity (a.u.).
For “ATCGCCATTTCCATGTGTCAGAAATTAGTTCTGAGTTAAGCGGAGTCACCTAGTGCAG”, the binding signal was 3760 fluorescence intensity (a.u.).
“GCTGCTGCCTATTGATGACACACCTCTACTGCAATGGCGGCGGAGTCACCTAGTGCAG” was tested, and the binding signal was 5340 fluorescence intensity (a.u.).
In the case of “ATGGATTCCAACCACATGATCCATATGACGTCGTCGTCTTCGGAGTCACCTAGTGCAG”, the binding signal is reported as 4860 fluorescence intensity (a.u.).
With “CCATATAGGAATTTAAAACTAACTAAAATTCGGAATAAACCGGAGTCACCTAGTGCAG” the binding signal was 3400 fluorescence intensity (a.u.).
With “TAATCTAATCATGAAATGCAACTTTAGTTTATGTTTAACACGGAGTCACCTAGTGCAG” the binding signal was 3160 fluorescence intensity (a.u.).
With “CTCGATGAGCCGATGCTTGGGGCTGCCCCTAATATTCACACGGAGTCACCTAGTGCAG” the binding signal was 3260 fluorescence intensity (a.u.).
For “CATGTCTTTTGAAGACTCGTTGGGTGAGTAGTGGGGCTTACGGAGTCACCTAGTGCAG”, the binding signal was 3510 fluorescence intensity (a.u.).
With “CGAGTGGGACCCATAAGCTGACTCAGCTAGTCAGCAGAATCGGAGTCACCTAGTGCAG” the binding signal was 16200 fluorescence intensity (a.u.).
“TGATTAGTGATTAGTGCTAATCATAATTAGTGCCTACAAGCGGAGTCACCTAGTGCAG” was tested, and the binding signal was 26800 fluorescence intensity (a.u.).
For “CTCTTAACGGAGAAAAGAACGGGGCCGGCTTCAAGCCACGCGGAGTCACCTAGTGCAG”, the binding signal was 3370 fluorescence intensity (a.u.).
With “ATGGCAGTGGAGGCGTAGAACTGTAGAAGTGTATCTTATCCGGAGTCACCTAGTGCAG” the binding signal was 3320 fluorescence intensity (a.u.).
With “GAGACGAGATCCCTTTCCTCTGTCACCTTTCTCCCCTCCGCGGAGTCACCTAGTGCAG” the binding signal was 3430 fluorescence intensity (a.u.).
For “CCGGACCAAAATGACGTGCCTTAGGCCGGGCCGCCAGCCTCGGAGTCACCTAGTGCAG”, the binding signal was 3830 fluorescence intensity (a.u.).
In the case of “AATAATTCGCAGCGTCATATCATGCAATATCTAATCGTCGCGGAGTCACCTAGTGCAG”, the binding signal is reported as 3260 fluorescence intensity (a.u.).
With “ACTGCGTTGAGAACATTATTACCACAATGTGATGTGGCCTCGGAGTCACCTAGTGCAG” the binding signal was 4630 fluorescence intensity (a.u.).
